Experimental findings from publication PMC7819943, “Rice protein-binding microarrays: a tool to detect cis-acting elements near promoter regions in rice” are described below.

The chains behind the UniProt entries cited, without tags or fusion partners.
UniProt Q0JBA9, entry or part of it: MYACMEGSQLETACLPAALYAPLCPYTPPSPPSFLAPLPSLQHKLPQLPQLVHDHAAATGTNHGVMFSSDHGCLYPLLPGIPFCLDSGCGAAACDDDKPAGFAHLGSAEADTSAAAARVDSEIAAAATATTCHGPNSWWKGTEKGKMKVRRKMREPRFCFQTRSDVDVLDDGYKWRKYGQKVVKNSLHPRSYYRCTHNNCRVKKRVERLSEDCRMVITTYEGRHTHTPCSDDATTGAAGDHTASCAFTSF

The other results are listed elsewhere or left out.

The target of the experiment is OsWRKY34 (Oryza sativa, UniProt Q0JBA9 1-250). The experiment in a line: protein-binding microarray (RPBM); PBS, 2% BSA, 51.3 ng/ul salmon testes DNA, 50 uM zinc acetate, 200 nM TF, 25 C, 1 h; high values mean tight binding. The settings on record: protein: recombinant; tags: N-terminal polyhistidine and DsRed monomer fusion (pET32a); label: CyDye5-dUTP incorporated in the synthesized complementary strand; 3' TTTTT single-stranded linker to array surface; dsDNA, one strand shown. The essentials:
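A custom Agilent array was converted to double-stranded form by primer extension with Cy5-dUTP and blocked with 2% BSA. Protein at 200 nM in PBS with 2% BSA, salmon testes DNA and 50 µM zinc acetate was applied for 1 h at 25 °C, followed by washing. The proteins were polyhistidine–DsRed N-terminal fusions of transcription factors, expressed in E. coli BL21-CodonPlus and Ni–NTA-purified. The binding signal is per-feature fluorescence intensity (arbitrary units) from an Axon 4000B scanner.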
Regarding “GCTCTAGGACCAAGTCCTCGGGCGCGCGCTCGCCTTTTATCGGAGTCACCTAGTGCAG”, the binding signal was 9040 fluorescence intensity (a.u.).

Turning to “CCCAAGTCAGCCCCTCGTTTTTTTACGTCGTCCGAAAGATCGGAGTCACCTAGTGCAG”, the binding signal is 8080 fluorescence intensity (a.u.).

Consider “CTACCCGAAGCTGTCCTTACCGGGCTTCTTGATTTGCGGACGGAGTCACCTAGTGCAG”, for which the binding signal is 8120 fluorescence intensity (a.u.).

For the sequence “TCGTGTCAATGTGTGTTTTTTGTGGATCTTCTTGGTTTGGCGGAGTCACCTAGTGCAG”, the binding signal is 10700 fluorescence intensity (a.u.).

Consider “GATGTCATGTCTGATCCTGATTTCGACCTGCTCTACTGCACGGAGTCACCTAGTGCAG”, for which the binding signal is 9790 fluorescence intensity (a.u.).

As for “TTTTTCTCTGCGTCCTCTGCCCTCGATTGCTGGCGTTGCTCGGAGTCACCTAGTGCAG”, the binding signal was 12800 fluorescence intensity (a.u.).

As for “GGTGTTGTGATTTATATATTGAGAATTCGATGTTCCATCACGGAGTCACCTAGTGCAG”, the binding signal is 8180 fluorescence intensity (a.u.).

On to “TTTTTGTGATGTGCCTTACATGGTTGAATTAAGTCTGTTTCGGAGTCACCTAGTGCAG”, for which the binding signal was 8580 fluorescence intensity (a.u.).

Consider “TTATAGCTCAGATCTTTGTCAACTCTCTCGCACGTGACGTCGGAGTCACCTAGTGCAG”, for which the binding signal is 8500 fluorescence intensity (a.u.).

In the case of “TATGACGTGTTTCTTATGTCTTGGTTTGTGATCACTTGTTCGGAGTCACCTAGTGCAG”, the binding signal was 11700 fluorescence intensity (a.u.).

For “TTTTTCCATACGCAGGTGATTTGACAGCCTATTGCTTTTGCGGAGTCACCTAGTGCAG”, the binding signal is 8430 fluorescence intensity (a.u.).

On to “CCCAAGCCGCGGCCAAGCCATTTTTCACCGTTCACCGTGGCGGAGTCACCTAGTGCAG”, for which the binding signal was 9980 fluorescence intensity (a.u.).

Consider “ATTATGCATTTATTTTATTTGAAACTTTAATGCTTTTTTTCGGAGTCACCTAGTGCAG”, for which the binding signal is 8110 fluorescence intensity (a.u.).

For “CTCGTCTCGTTTCGTTTCGCTTCATCTCGTCATCGATGCGCGGAGTCACCTAGTGCAG”, the binding signal was 9330 fluorescence intensity (a.u.).

“AAACTTATTTTAATATTCCTTATTTTTAATTTCGAATTTCCGGAGTCACCTAGTGCAG”: the binding signal was 8410 fluorescence intensity (a.u.).

Consider “CACCATTTGGATCTCATGTTCACAGTTTCATCTAGGGACACGGAGTCACCTAGTGCAG”, for which the binding signal was 8180 fluorescence intensity (a.u.).

Consider “ACATTTATAGCTCATCTTGTTTTGTTTATCTTCTCAATTTCGGAGTCACCTAGTGCAG”, for which the binding signal was 8400 fluorescence intensity (a.u.).

On to “GTTTTATCTATTTTTTTAGTGTGTTGGCCCAGTCATTTTTCGGAGTCACCTAGTGCAG”, for which the binding signal was 11200 fluorescence intensity (a.u.).

Turning to “TAGTTTTGCATGTCTCGTATTTAATCCCGATCTTTATAAGCGGAGTCACCTAGTGCAG”, the binding signal was 8150 fluorescence intensity (a.u.).

For the sequence “TATGTTTGTGCTTGTGGTGCCGCGAAAAATCTTACTACTCCGGAGTCACCTAGTGCAG”, the binding signal was 8290 fluorescence intensity (a.u.).

Regarding “ATGGTGCTGATCGGTTTTTGGCGCTTGTTTTACTTTTACACGGAGTCACCTAGTGCAG”, the binding signal was 11600 fluorescence intensity (a.u.).

On to “TCGATATCCGGCGTCTTGTCTTGATGTATGTTGGCTTGTACGGAGTCACCTAGTGCAG”, for which the binding signal was 8620 fluorescence intensity (a.u.).

Turning to “GCAAATGTGAGGGCTCTTCTTTCCTTTCTTTGTGTGTTTTCGGAGTCACCTAGTGCAG”, the binding signal was 9860 fluorescence intensity (a.u.).

Take “ATTTTATGTCACTGACTTTCTTCCCATTCTATAATATGTCCGGAGTCACCTAGTGCAG”: the binding signal was 8590 fluorescence intensity (a.u.).

For “TTTTCTTTGCTTTTCGGTTTCGTTCTCCGTTTTGGTTTTTCGGAGTCACCTAGTGCAG”, the binding signal was 12400 fluorescence intensity (a.u.).

As to “GGTAAGGGTGGGTTTGGAGCTGTGTTCCTTGGTTACTTGGCGGAGTCACCTAGTGCAG”, the binding signal is 13500 fluorescence intensity (a.u.).

Turning to “ACACGATATAGTCATTGCAATTATCACGGATCCAGGTCCTCGGAGTCACCTAGTGCAG”, the binding signal is 8560 fluorescence intensity (a.u.).

In the case of “CACACCACGGCCACCACCACCAACTCGATCGCACAGCAAACGGAGTCACCTAGTGCAG”, the binding signal is 8430 fluorescence intensity (a.u.).

With “CAACTCTTGGTTCGTTTTTATATGATATCACCCATCACGACGGAGTCACCTAGTGCAG”, the binding signal is 9790 fluorescence intensity (a.u.).

As to “CATTTCTCTCGGTTCATTTGTGATGCTAACTGATACTAAGCGGAGTCACCTAGTGCAG”, the binding signal was 9320 fluorescence intensity (a.u.).

As to “CTTAGTTTAAAATCGTTCGATCTTGCTTTGAAGGTCTGATCGGAGTCACCTAGTGCAG”, the binding signal is 8240 fluorescence intensity (a.u.).

On to “AATCATCACATCATCACCGTCATCTTCTCTAGCATAGCAACGGAGTCACCTAGTGCAG”, for which the binding signal was 8050 fluorescence intensity (a.u.).

Consider “CTTCAAACTTTCAACTTTTCCGTCACATCGAATTTCCCTACGGAGTCACCTAGTGCAG”, for which the binding signal was 9020 fluorescence intensity (a.u.).

As for “CATCTACCCATAGTACTATATTATCATTTGTCACACTGACCGGAGTCACCTAGTGCAG”, the binding signal was 10500 fluorescence intensity (a.u.).

For “ATAATCATACGCTACCCCATATCGCGGTGCAGTAATCACACGGAGTCACCTAGTGCAG”, the binding signal is 8520 fluorescence intensity (a.u.).

For the sequence “AAGCTTCAACCTTCCCATGCTGCAAACAGTTAATCTCAACCGGAGTCACCTAGTGCAG”, the binding signal is 8400 fluorescence intensity (a.u.).

As for “CCGAACAATACCCGCCCGTTTCCTTGCTCGCGAATCCACTCGGAGTCACCTAGTGCAG”, the binding signal was 10100 fluorescence intensity (a.u.).

For the sequence “AAGAAATCATCATCATCTCACGCATTTCTTGCTCGAATTCCGGAGTCACCTAGTGCAG”, the binding signal was 8890 fluorescence intensity (a.u.).

With “CTGTGGAGTGTGTGCTAGTATTGTCCGGCCGGCTTCGTGCCGGAGTCACCTAGTGCAG”, the binding signal is 9800 fluorescence intensity (a.u.).

On to “ACAGGGTTCAGAGATCATATAATAACTTGTTTTCCATGTCCGGAGTCACCTAGTGCAG”, for which the binding signal is 8990 fluorescence intensity (a.u.).

Take “TTTGGTTGTCTCTGTGGTGTTTTGTTTGGTAAAATTTTTGCGGAGTCACCTAGTGCAG”: the binding signal was 8290 fluorescence intensity (a.u.).

“GGTGTTGCCTGCGCGCTAGCCGTCGCATTGTTCATCGGGTCGGAGTCACCTAGTGCAG”: the binding signal is 8570 fluorescence intensity (a.u.).
